Results are given in words; binding and its absence hold for the method and conditions named. Tags and fused reporters may be left off the sequences shown.
Target: HP0377 (Helicobacter pylori thiol oxidoreductase), amino acids 25-221, His6 fusion (Helicobacter pylori strain 26695) (UniProt O25140)
Experiment: SEC; HP0377 alone on ENrich SEC70 column, calibrated with gel filtration standards; both purified

- binding: no binding
B1: HP0377 (Helicobacter pylori thiol oxidoreductase), amino acids 25-221, His6 fusion (enzyme, UniProt O25140 25-221)
chain: CKSNNKDKLDENLLSSGSQSSKELNDERDNIDKKSYAGLEDVFSDNKSISPNDKYMLLVFGRNGCSYCERFKKDLKNVKELRDYIKEHFSAYYVNISYSKEHDFKVGDKNNEKEIKMSTEELAQIYAVQSTPTIVLSDKTGKTIYELPGYMPSTQFLAVLEFIGDGKYQDTKDDEDLTKKLKAYIKYKTNLSKSKSN
